The list is a part of this screen's results and no random one: it gathers tests that were run many times, whatever their T/C, doses with no T/C, and many T/C values between a quarter and a half above the control. Other doses and runs of a compound stand elsewhere. T/C is the treated group as % of the vehicle group. Some doses have a count of surviving animals in place of a T/C: the source files T/C as zero there, which appears to mark a toxic dose or a test without result, not a measured value. Some survivor counts are full or nearly so, which does not show that the dose was tolerated: the source hardly ever lists a survival T/C far under the control, and the zero likely stands for such cases as well. Survivors were counted at the toxicity check, usually on the fifth day, unless a day is given; later deaths do not show. Schedule codes are those of the source, taken here to give the interval after Q, in days (D) or hours (H), and the number of doses after X. Some doses were run more than once; the results are listed from low to high. Where survival is the endpoint, the PubChem record calls one and a half times the control and up active, and a quarter to a half above the control has no call in these data; cut-offs in other NCI protocols can differ. Starred links: 1 amine or outer side, 2 acyl side, 3 side chain; linkers in the order of their positions; H or OH if unused. Positions of bridges follow the written chain, without caps; N, C: chain ends. Non-standard residues stand in square brackets, D forms with d. Residues, ends and D or L forms follow the SMILES beside them. Chains are numbered I, II in the order given. Actinocin(1to9) = Cc1c2oc3c(C)ccc(C(=O)[*:2])c3nc-2c(C(=O)[*:1])c(N)c1=O; X2 = CC(=O)OC1CC(C)N([*:1])C1C(=O)[*:2]; X1 = CC1CC(=O)C(C(=O)[*:2])N1[*:1]; NMeV = CN[CH](C(=O)O)C(C)C; NMeA = CN[CH](C)C(=O)O; Sar = CNCC(=O)O
System: BDF1 mice, P388 leukemia ip, median survival T/C
Assay: NCI In Vivo Anticancer Drug Screen. Data for tumor model P388 Leukemia (intraperitoneal) in B6D2F1 (BDF1) mice
Conditions: T/C endpoint: median survival time, higher T/C = longer survival
Outline: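 Antitumour effect was judged in vivo: survival in drug-treated mice, normalised to that of vehicle-dosed controls, gives the reported T/C.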

[1] = dose: 200.0 mg/kg/injection, schedule: Q01DX005 (ip), vehicle: saline with Tween-80
[2] = dose: 100.0 mg/kg/injection, schedule: Q01DX009 (ip), vehicle: saline with Tween-80
[3] = dose: 200.0 mg/kg/injection, schedule: Q01DX009 (ip), vehicle: saline with Tween-80
[4] = dose: 50.0 mg/kg/injection, schedule: Q01DX005 (ip), vehicle: saline with Tween-80
[5] = dose: 200.0 mg/kg/injection, schedule: Q04DX003 (ip), vehicle: saline
[6] = dose: 100.0 mg/kg/injection, schedule: Q01DX009 (ip), vehicle: saline
[7] = dose: 25.0 mg/kg/injection, schedule: Q01DX009 (ip), vehicle: saline with Tween-80
[8] = dose: 50.0 mg/kg/injection, schedule: Q01DX009 (ip), vehicle: saline with Tween-80
[9] = dose: 200.0 mg/kg/injection, schedule: Q01DX009 (ip), vehicle: saline
[10] = dose: 200.0 mg/kg/injection, schedule: Q04DX003 (ip), vehicle: Klucel (hydroxypropylcellulose) (HPC)

## O=C(CN1CCOCC1)Nc1nc(-c2ccc(Cl)cc2)cs1
[1]
  survivor count: 5 of 5

## O=S(=O)(OCCF)c1cc(Cl)c(Cl)cc1Cl
dose: 100.0 mg/kg/injection, schedule: Q01DX005 (ip), vehicle: Klucel (hydroxypropylcellulose) (HPC)
  survivor count: 3 of 6
dose: 200.0 mg/kg/injection, schedule: Q01DX005 (ip), vehicle: Klucel (hydroxypropylcellulose) (HPC)
  survivor count: 1 of 6

## CN1CC2([N+](=O)[O-])C=CCC([N+](=O)[O-])(C1)C2 (configuration not stated)
dose: 400.0 mg/kg/injection, schedule: Q01DX009 (ip), vehicle: water
  survivor count: 5 of 6

## Clc1ccc(CNc2ncnc3[nH]ncc23)cc1Cl
[2]
  survivor count: 6 of 6
[3]
  survivor count: 4 of 6
dose: 400.0 mg/kg/injection, schedule: Q01DX009 (ip), vehicle: saline with Tween-80
  survivor count: 1 of 6

## Cc1cc(=O)oc2c(N)nccc12
dose: 25.0 mg/kg/injection, schedule: Q01DX005 (ip), vehicle: saline with Tween-80
  T/C: 136 % of control
[4]
  T/C: 128 % of control
  survivor count: 4 of 5
dose: 100.0 mg/kg/injection, schedule: Q01DX005 (ip), vehicle: saline with Tween-80
  survivor count: 1 of 5 and 2 of 5
[1]
  survivor count: 0 of 5

## CC(=O)OC1CC(C)N2C(=O)C(C(C)C)NC(=O)C(NC(=O)c3ccc(C)c4oc5c(C)c(=O)c(N)c(C(=O)NC6C(=O)NC(C(C)C)C(=O)N7C(C)CC(=O)C7C(=O)N(C)CC(=O)N(C)C(C)C(=O)OC6C)c-5nc34)C(C)OC(=O)C(C(C)C)N(C)C(=O)CN(C)C(=O)C12 (configuration not stated) (I: TV[X1][Sar][NMeA] / II: TV[X2][Sar][NMeV]; ester I:1-I:C, II:1-II:C; linker I:N-II:N via Actinocin(1to9); configuration not given here)
dose: 0.2 mg/kg/injection, schedule: Q01DX009 (ip), vehicle: saline + alcohol
  T/C: 145 % of control
dose: 0.4 mg/kg/injection, schedule: Q01DX001 (ip), vehicle: saline + alcohol
  T/C: 125 % of control
dose: 0.6 mg/kg/injection, schedule: Q04DX003 (ip), vehicle: saline + alcohol
  T/C: 130 % of control
dose: 0.8 mg/kg/injection, schedule: Q01DX001 (ip), vehicle: saline + alcohol
  T/C: 130 % of control
dose: 1.6 mg/kg/injection, schedule: Q01DX001 (ip), vehicle: saline + alcohol
  T/C: 140 % of control
dose: 3.2 mg/kg/injection, schedule: Q01DX001 (ip), vehicle: saline + alcohol
  T/C: 145 % of control

## OCC(F)(F)C(F)(F)C(F)(F)CO
dose: 88.0 mg/kg/injection, schedule: Q04DX003 (ip), vehicle: saline
  T/C: 143 % of control
dose: 132.0 mg/kg/injection, schedule: Q04DX003 (ip), vehicle: saline
  T/C: 139 % of control
[5]
  T/C: 139 % of control
dose: 300.0 mg/kg/injection, schedule: Q04DX003 (ip), vehicle: saline
  T/C: 134 % of control

## COc1cc(N(CCCl)CCCl)c(OC)cc1/C=N/NC(=O)CC(N)C(=O)O (configuration not stated)
dose: 12.5 mg/kg/injection, schedule: Q01DX009 (ip), vehicle: Klucel (hydroxypropylcellulose) (HPC)
  T/C: 139 % of control
dose: 19.0 mg/kg/injection, schedule: Q04DX003 (ip), vehicle: Klucel (hydroxypropylcellulose) (HPC)
  T/C: 145 % of control
dose: 29.0 mg/kg/injection, schedule: Q04DX003 (ip), vehicle: Klucel (hydroxypropylcellulose) (HPC)
  T/C: 145 % of control
dose: 45.0 mg/kg/injection, schedule: Q04DX003 (ip), vehicle: Klucel (hydroxypropylcellulose) (HPC)
  T/C: 136 % of control
dose: 100.0 mg/kg/injection, schedule: Q01DX009 (ip), vehicle: Klucel (hydroxypropylcellulose) (HPC)
  survivor count: 4 of 6
dose: 200.0 mg/kg/injection, schedule: Q01DX009 (ip), vehicle: Klucel (hydroxypropylcellulose) (HPC)
  survivor count: 0 of 6
dose: 300.0 mg/kg/injection, schedule: Q04DX003 (ip), vehicle: Klucel (hydroxypropylcellulose) (HPC)
  survivor count: 3 of 6 and 5 of 6
dose: 400.0 mg/kg/injection, schedule: Q01DX009 (ip), vehicle: Klucel (hydroxypropylcellulose) (HPC)
  survivor count: 0 of 6

## COc1cccc(NN)c1
[6]
  survivor count: 6 of 6
[5]
  survivor count: 5 of 6

## COc1cc2cc(c1Cl)N(C)C(=O)CC(OC(=O)C(C)C)C1(C)OC1C(C)C1CC(O)(NC(=O)O1)C(OC)/C=C/C=C(/C)C2OC(C)=O (configuration not stated)
dose: 0.1 micrograms/kg/injection, schedule: Q01DX009 (ip), vehicle: saline + alcohol
  T/C: 125 % of control
dose: 0.2 micrograms/kg/injection, schedule: Q01DX009 (ip), vehicle: saline + alcohol
  T/C: 125 % of control
dose: 0.4 micrograms/kg/injection, schedule: Q01DX009 (ip), vehicle: saline + alcohol
  T/C: 133 % of control
dose: 0.8 micrograms/kg/injection, schedule: Q01DX009 (ip), vehicle: saline + alcohol
  T/C: 137 % of control
dose: 50.0 micrograms/kg/injection, schedule: Q01DX009 (ip), vehicle: saline + alcohol
  survivor count: 6 of 6

## Cc1ccc(CBr)c2ccccc12
dose: 12.5 mg/kg/injection, schedule: Q01DX009 (ip), vehicle: saline with Tween-80
  T/C: 137 % of control
[7]
  T/C: 130 % of control
[8]
  T/C: 133 % of control
  survivor count: 3 of 6
[2]
  survivor count: 3 of 6
[3]
  survivor count: 0 of 6

## CC1(C)CS(=O)(=O)CC1=O
dose: 200.0 mg/kg/injection, schedule: Q01DX001 (ip), vehicle: Klucel (hydroxypropylcellulose) (HPC)
  survivor count: 3 of 6
dose: 400.0 mg/kg/injection, schedule: Q01DX001 (ip), vehicle: Klucel (hydroxypropylcellulose) (HPC)
  survivor count: 2 of 6

## C#CC[N+]12CN3CN(CN(C3)C1)C2
[6]
  T/C: 137 and 148 % of control
[9]
  T/C: 147 % of control
  survivor count: 3 of 6
dose: 400.0 mg/kg/injection, schedule: Q01DX009 (ip), vehicle: saline
  survivor count: 0 of 6

## Cc1cc([N+](=O)[O-])cc(C)c1OC(=O)c1ccc(N=C(N)N)cc1
[6]
  survivor count: 2 of 6
[5]
  survivor count: 2 of 6

## Oc1cccc2c1[O][Sb][O]2
[7]
  T/C: 142 % of control
dose: 25.0 mg/kg/injection, schedule: Q04DX003 (ip), vehicle: saline with Tween-80
  T/C: 133 % of control
dose: 37.5 mg/kg/injection, schedule: Q04DX003 (ip), vehicle: saline with Tween-80
  T/C: 133 % of control
[8]
  T/C: 147 % of control
[2]
  survivor count: 0 of 6

## COc1ccc(C(=O)c2ccccc2)cc1OC
[10]
  survivor count: 6 of 6

## C=CCC(C)/C(=N\[N+](C)(C)C)c1ccccc1 (configuration not stated)
dose: 100.0 mg/kg/injection, schedule: Q01DX001 (ip), vehicle: saline
  survivor count: 0 of 6
dose: 200.0 mg/kg/injection, schedule: Q01DX001 (ip), vehicle: saline
  survivor count: 0 of 6
dose: 400.0 mg/kg/injection, schedule: Q01DX001 (ip), vehicle: saline
  survivor count: 0 of 6

## Cc1sc(C)c(CCl)c1CCl
dose: 16.5 mg/kg/injection, schedule: Q01DX009 (ip), vehicle: saline with Tween-80
  T/C: 125 % of control
[7]
  T/C: 129 % of control
dose: 37.5 mg/kg/injection, schedule: Q01DX009 (ip), vehicle: saline with Tween-80
  T/C: 133 % of control

## C[n+]1cccc2c3ccccc3c(-c3ccccc3)cc21
dose: 0.78 mg/kg/injection, schedule: Q01DX009 (ip), vehicle: water
  T/C: 128 % of control
dose: 12.5 mg/kg/injection, schedule: Q01DX009 (ip), vehicle: water
  T/C: 137 % of control
dose: 25.0 mg/kg/injection, schedule: Q01DX009 (ip), vehicle: water
  survivor count: 5 of 6
dose: 50.0 mg/kg/injection, schedule: Q01DX009 (ip), vehicle: water
  survivor count: 0 of 6
dose: 50.0 mg/kg/injection, schedule: Q04DX003 (ip), vehicle: water
  survivor count: 0 of 6
dose: 100.0 mg/kg/injection, schedule: Q01DX009 (ip), vehicle: water
  survivor count: 0 of 6

## O=C(Nc1cccc(C(F)(F)F)c1)C12CC3CC(CC(C3)C1)C2
[7]
  survivor count: 6 of 6

## CCCCCCCCC(=O)CCC
dose: 100.0 mg/kg/injection, schedule: Q04DX003 (ip), vehicle: Klucel (hydroxypropylcellulose) (HPC)
  survivor count: 6 of 6
[10]
  survivor count: 6 of 6
